Paper PMC4057782

Protein sequences, listed by entry. Tags and fused reporters are not part of them. Lines headed by an entry give the natural chain unless they say otherwise; changes in a name come on top.
UniProt P49591: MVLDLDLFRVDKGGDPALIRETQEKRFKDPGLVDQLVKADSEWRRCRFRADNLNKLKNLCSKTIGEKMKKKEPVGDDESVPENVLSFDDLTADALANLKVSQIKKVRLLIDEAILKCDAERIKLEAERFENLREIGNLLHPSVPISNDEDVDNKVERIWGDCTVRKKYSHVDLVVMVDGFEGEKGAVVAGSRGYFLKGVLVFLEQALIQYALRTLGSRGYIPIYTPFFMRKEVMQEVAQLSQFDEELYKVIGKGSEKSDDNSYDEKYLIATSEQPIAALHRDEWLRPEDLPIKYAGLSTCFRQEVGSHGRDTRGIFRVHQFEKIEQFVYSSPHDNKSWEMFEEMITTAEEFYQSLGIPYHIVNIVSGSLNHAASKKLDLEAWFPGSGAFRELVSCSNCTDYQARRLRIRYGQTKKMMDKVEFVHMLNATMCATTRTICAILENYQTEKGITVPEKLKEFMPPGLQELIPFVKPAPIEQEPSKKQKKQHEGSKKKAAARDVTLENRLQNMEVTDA

What was measured:
[1] = biological target: SerRS delta insertion I del75-97 (Homo sapiens) (UniProt P49591); test: EMSA; settings: dramatically weakened; EMSA: 20 mM Tris-HCl pH 8.0, 60 mM KCl, 5 mM MgCl2, 0.1 mg/ml BSA, 10 ng/ul poly(dG-dC), 1 mM DTT, 30 min, room temperature; recombinant protein; label: 5' 32P; letters put together from the description
[2] = biological target: SerRS delta insertion II del254-261 (Homo sapiens) (UniProt P49591); test: EMSA; settings: dramatically weakened; EMSA: 20 mM Tris-HCl pH 8.0, 60 mM KCl, 5 mM MgCl2, 0.1 mg/ml BSA, 10 ng/ul poly(dG-dC), 1 mM DTT, 30 min, room temperature; recombinant protein; label: 5' 32P; letters put together from the description

“GGCGGGGCGGAGCCATGCGCCCCCCCC (double strand) [VEGFA promoter 27-bp (-62 to -36)]”: binds more weakly [1]; binds more weakly [2].

For at least one entry, the source does not settle the construct or the ends of the probe. A weaker result is weaker than the reference pair of the same experiment.
